Test results: PMC7519114
Like-named read-outs stand apart in the source and are kept apart here. Results are given in words; binding and its absence hold for the method and conditions named. In cells and extracts the contact can be indirect. Here binding means that the protein was enriched with, or labelled near, the bait; the list need not be complete.

Chains of the proteins cited; added tags and fusions are not shown.
UniProt P25106: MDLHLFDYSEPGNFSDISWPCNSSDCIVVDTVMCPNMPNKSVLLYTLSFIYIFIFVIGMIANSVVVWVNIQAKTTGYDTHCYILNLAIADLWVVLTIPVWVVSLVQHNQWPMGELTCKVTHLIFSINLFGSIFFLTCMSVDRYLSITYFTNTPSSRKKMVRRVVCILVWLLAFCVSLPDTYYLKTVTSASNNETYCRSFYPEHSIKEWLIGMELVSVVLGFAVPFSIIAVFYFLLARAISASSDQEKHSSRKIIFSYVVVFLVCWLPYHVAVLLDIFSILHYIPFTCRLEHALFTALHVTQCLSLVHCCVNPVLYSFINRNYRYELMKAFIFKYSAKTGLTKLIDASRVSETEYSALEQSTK
UniProt Q9NRR5: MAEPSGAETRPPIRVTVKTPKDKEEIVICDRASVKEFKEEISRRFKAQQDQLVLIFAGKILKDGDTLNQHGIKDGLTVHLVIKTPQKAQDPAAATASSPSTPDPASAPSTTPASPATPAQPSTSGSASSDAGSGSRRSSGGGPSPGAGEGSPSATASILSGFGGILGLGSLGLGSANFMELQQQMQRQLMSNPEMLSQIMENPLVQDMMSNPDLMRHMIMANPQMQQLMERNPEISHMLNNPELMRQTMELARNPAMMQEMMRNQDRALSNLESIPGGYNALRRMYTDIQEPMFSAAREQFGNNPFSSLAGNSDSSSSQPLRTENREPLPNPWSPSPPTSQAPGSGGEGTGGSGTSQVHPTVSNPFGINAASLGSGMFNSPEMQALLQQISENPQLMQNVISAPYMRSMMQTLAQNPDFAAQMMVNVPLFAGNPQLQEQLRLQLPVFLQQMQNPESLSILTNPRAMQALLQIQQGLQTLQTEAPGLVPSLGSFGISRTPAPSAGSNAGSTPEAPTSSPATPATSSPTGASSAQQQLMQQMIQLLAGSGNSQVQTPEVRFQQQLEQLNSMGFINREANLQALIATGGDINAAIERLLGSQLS
UniProt Q00610: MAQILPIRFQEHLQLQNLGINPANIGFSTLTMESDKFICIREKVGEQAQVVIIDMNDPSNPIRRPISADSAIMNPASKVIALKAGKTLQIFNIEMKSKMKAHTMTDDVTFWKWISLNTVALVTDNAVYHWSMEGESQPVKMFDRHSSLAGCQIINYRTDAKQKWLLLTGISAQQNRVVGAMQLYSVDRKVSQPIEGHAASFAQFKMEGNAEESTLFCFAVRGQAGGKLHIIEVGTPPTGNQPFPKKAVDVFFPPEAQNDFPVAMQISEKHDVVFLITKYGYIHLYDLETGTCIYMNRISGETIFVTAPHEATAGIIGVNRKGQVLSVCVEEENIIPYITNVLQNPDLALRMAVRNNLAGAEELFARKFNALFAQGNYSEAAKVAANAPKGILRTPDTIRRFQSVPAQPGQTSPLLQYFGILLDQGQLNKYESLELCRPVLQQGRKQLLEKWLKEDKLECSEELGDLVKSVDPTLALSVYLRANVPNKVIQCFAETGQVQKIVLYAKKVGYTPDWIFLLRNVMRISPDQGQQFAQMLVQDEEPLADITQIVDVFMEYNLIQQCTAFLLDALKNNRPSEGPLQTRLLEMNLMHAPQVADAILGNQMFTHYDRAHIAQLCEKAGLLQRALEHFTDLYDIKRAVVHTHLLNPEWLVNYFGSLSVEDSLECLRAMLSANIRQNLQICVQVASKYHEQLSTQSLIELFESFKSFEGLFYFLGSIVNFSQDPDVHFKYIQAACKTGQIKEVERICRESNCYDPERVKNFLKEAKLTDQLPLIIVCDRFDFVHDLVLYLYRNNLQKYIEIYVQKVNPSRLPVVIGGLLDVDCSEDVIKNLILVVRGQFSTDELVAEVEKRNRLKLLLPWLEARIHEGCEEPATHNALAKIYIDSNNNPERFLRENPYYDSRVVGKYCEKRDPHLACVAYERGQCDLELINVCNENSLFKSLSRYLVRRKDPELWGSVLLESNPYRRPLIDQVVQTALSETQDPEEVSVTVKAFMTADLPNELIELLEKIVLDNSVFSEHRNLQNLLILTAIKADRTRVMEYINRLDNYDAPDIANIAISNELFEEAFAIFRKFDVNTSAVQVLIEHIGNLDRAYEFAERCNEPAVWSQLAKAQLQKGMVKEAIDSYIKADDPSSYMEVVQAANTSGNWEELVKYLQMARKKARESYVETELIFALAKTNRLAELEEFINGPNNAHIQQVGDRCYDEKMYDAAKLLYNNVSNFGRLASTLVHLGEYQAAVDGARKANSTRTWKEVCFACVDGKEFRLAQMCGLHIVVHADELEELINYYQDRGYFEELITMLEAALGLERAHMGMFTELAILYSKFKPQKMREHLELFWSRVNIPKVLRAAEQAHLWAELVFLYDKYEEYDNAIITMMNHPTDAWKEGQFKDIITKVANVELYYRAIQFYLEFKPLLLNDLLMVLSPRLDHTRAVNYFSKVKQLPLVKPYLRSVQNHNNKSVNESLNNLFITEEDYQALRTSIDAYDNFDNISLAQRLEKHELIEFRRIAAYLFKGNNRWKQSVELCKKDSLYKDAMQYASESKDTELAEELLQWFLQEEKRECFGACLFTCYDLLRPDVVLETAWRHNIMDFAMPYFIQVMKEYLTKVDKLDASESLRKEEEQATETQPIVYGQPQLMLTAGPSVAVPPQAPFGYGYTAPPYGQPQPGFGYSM
UniProt P08754: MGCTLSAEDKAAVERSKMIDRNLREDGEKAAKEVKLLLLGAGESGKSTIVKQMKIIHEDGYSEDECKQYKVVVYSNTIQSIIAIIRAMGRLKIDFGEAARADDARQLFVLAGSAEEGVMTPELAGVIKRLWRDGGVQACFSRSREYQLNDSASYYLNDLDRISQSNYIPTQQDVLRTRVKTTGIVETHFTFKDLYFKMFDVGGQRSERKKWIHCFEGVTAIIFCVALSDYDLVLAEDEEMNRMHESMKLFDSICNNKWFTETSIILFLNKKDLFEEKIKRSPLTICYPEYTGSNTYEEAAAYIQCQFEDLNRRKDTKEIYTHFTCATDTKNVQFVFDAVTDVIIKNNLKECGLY
UniProt Q14203: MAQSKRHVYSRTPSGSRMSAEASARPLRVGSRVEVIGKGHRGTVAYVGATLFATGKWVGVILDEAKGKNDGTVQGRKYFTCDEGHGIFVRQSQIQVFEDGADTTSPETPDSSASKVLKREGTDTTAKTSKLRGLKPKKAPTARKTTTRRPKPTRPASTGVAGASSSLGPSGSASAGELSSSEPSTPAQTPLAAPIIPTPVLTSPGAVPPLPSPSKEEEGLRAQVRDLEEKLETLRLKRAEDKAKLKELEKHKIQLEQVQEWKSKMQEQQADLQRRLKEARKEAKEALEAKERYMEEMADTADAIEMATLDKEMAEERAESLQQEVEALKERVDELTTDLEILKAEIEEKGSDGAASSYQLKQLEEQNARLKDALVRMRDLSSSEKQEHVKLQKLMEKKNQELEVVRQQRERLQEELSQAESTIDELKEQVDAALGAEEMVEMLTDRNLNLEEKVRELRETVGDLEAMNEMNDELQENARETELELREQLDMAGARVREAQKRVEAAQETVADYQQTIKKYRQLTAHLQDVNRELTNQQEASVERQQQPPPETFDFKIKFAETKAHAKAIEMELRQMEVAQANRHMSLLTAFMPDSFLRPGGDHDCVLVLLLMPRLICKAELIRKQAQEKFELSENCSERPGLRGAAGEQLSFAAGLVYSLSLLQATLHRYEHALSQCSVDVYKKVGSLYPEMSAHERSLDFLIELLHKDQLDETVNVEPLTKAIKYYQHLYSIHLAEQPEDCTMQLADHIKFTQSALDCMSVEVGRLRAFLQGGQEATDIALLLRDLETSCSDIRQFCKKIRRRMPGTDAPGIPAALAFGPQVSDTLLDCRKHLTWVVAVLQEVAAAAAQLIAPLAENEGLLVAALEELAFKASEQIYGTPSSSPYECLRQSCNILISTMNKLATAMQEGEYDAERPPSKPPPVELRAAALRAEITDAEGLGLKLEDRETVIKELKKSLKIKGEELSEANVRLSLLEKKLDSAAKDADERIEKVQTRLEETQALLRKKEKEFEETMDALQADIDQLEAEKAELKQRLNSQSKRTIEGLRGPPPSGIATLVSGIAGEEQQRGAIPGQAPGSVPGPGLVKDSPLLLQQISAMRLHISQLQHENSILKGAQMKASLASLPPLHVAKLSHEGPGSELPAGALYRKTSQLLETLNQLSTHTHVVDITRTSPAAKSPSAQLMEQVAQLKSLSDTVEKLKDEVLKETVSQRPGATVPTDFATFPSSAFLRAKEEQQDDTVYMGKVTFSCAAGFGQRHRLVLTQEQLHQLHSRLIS
UniProt Q13509: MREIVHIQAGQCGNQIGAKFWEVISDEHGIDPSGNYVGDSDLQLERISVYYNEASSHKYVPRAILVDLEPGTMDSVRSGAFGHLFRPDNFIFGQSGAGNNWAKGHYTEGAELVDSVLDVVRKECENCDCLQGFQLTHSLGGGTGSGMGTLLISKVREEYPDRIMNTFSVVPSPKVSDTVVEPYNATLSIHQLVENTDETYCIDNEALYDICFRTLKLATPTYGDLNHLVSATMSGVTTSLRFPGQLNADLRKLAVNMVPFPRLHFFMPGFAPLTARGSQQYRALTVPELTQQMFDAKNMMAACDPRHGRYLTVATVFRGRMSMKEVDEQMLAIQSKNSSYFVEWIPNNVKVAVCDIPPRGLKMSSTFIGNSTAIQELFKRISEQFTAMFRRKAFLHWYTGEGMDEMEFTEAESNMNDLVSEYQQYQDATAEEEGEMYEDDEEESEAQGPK
UniProt Q9UKV5: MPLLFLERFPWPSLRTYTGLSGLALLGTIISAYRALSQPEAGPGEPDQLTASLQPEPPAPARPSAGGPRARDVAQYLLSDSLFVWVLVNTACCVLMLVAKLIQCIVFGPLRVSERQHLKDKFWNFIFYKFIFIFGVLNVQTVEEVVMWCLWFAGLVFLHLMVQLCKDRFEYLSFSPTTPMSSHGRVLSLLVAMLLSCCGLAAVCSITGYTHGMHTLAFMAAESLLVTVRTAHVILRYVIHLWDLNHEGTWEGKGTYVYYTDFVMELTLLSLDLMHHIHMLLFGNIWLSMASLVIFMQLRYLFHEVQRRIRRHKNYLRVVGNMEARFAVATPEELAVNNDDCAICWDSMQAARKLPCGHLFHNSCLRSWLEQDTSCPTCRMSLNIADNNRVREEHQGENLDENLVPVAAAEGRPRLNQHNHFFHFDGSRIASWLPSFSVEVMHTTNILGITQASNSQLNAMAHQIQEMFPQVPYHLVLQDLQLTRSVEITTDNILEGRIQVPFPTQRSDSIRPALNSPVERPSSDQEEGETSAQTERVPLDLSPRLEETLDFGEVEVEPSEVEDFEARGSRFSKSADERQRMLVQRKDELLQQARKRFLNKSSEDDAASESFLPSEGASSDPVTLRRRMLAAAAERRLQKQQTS
UniProt P17302: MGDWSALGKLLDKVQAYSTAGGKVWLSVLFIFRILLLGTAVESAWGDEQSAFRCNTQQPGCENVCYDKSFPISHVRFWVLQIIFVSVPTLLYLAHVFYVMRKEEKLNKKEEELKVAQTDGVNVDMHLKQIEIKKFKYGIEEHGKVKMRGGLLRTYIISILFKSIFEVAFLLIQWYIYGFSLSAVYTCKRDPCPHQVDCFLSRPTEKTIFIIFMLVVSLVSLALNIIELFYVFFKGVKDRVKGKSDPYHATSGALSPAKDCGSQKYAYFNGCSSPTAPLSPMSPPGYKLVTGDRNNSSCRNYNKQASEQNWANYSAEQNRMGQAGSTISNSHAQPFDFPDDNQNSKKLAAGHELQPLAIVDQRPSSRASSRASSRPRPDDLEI

What was measured:
[1] = target: HA-tagged atypical chemokine receptor 3 (HA-ACKR3) (not stated (human or mouse cDNA cloned)) (UniProt P25106); test: affinity purification with mass spectrometry; HA-ACKR3 expressed in HEK293T cells; lysis in 1% DDM, 20 mM Tris-HCl pH 7.5, 100 mM NaCl, 2.5 mM CaCl2; 5 mg protein on agarose-conjugated anti-HA antibody overnight at 4 °C; washes with 0.5 M and 150 mM NaCl; nanoLC-MS/MS with label-free quantification against cells transfected with an empty plasmid
[2] = target: HA-tagged atypical chemokine receptor 3 (HA-ACKR3) (not stated (human or mouse cDNA cloned)) (UniProt P25106); test: as above; remark: listed apart in the source

| binding [1] | binding [2] | Molecule |
| --- | --- | --- |
| binds | – | Ubiquilin-4 (UBQLN4) (from UniProt Q9NRR5 1-601) |
| binds | – | Clathrin (CLTC) (from UniProt Q00610 1-1675) |
| binds | – | Gαi3 (GNAI3) (from UniProt P08754 1-354) |
| binds | – | Dynactin 1 (DCTN1) (from UniProt Q14203 1-1278) |
| binds | – | tubulin beta-3 chain (TUBB3) (from UniProt Q13509 1-450) |
| – | binds | beta-subunit of the electron-transfer protein (ETFB) (protein, UniProt P38117 1-255) MAELRVLVAVKRVIDYAVKIRVKPDRTGVVTDGVKHSMNPFCEIAVEEAVRLKEKKLVKEVIAVSCGPAQCQETIRTALAMGADRGIHVEVPPAEAERLGPLQVARVLAKLAEKEKVDLVLLGKQAIDDDCNQTGQMTAGFLDWPQGTFASQVTLEGDKLKVEREIDGGLETLRLKLPAVVTADLRLNEPRYATLPNIMKAKKKKIEVIKPGDLGVDLTSKLSVISVEDPPQRTAGVKVETTEDLVAKLKEIGRI |

Continued, molecule first:

| Molecule | binding [1] | binding [2] |
| --- | --- | --- |
| E3 ubiquitin-protein ligase HECTD1 (from UniProt Q9ULT8 1-2610) (enzyme) | binds | – |
| E3 ubiquitin-protein ligase AMFR (from UniProt Q9UKV5 1-643) (enzyme) | binds | – |
| Gap Junction Alpha-1 protein (GJA1, Connexin 43, Cx43) (from UniProt P17302 1-382) | binds | – |
| E3 ubiquitin-protein ligase HUWE1 (from UniProt Q7Z6Z7 1-4374) (enzyme) | binds | – |
| Cytochrome P450 oxidoreductase (POR) (enzyme, UniProt P16435 1-677) MGDSHVDTSSTVSEAVAEEVSLFSMTDMILFSLIVGLLTYWFLFRKKKEEVPEFTKIQTLTSSVRESSFVEKMKKTGRNIIVFYGSQTGTAEEFANRLSKDAHRYGMRGMSADPEEYDLADLSSLPEIDNALVVFCMATYGEGDPTDNAQDFYDWLQETDVDLSGVKFAVFGLGNKTYEHFNAMGKYVDKRLEQLGAQRIFELGLGDDDGNLEEDFITWREQFWPAVCEHFGVEATGEESSIRQYELVVHTDIDAAKVYMGEMGRLKSYENQKPPFDAKNPFLAAVTTNRKLNQGTERHLMHLELDISDSKIRYESGDHVAVYPANDSALVNQLGKILGADLDVVMSLNNLDEESNKKHPFPCPTSYRTALTYYLDITNPPRTNVLYELAQYASEPSEQELLRKMASSSGEGKELYLSWVVEARRHILAILQDCPSLRPPIDHLCELLPRLQARYYSIASSSKVHPNSVHICAVVVEYETKAGRINKGVATNWLRAKEPAGENGGRALVPMFVRKSQFRLPFKATTPVIMVGPGTGVAPFIGFIQERAWLRQQGKEVGETLLYYGCRRSDEDYLYREELAQFHRDGALTQLNVAFSREQSHKVYVQHLLKQDREHLWKLIEGGAHIYVCGDARNMARDVQNTFYDIVAELGAMEHAQAVDYIKKLMTKGRYSLDVWS | – | binds |
| Solute carrier family 1 member 5 (SLC1A5) (protein, UniProt Q15758 1-541) MVADPPRDSKGLAAAEPTANGGLALASIEDQGAAAGGYCGSRDQVRRCLRANLLVLLTVVAVVAGVALGLGVSGAGGALALGPERLSAFVFPGELLLRLLRMIILPLVVCSLIGGAASLDPGALGRLGAWALLFFLVTTLLASALGVGLALALQPGAASAAINASVGAAGSAENAPSKEVLDSFLDLARNIFPSNLVSAAFRSYSTTYEERNITGTRVKVPVGQEVEGMNILGLVVFAIVFGVALRKLGPEGELLIRFFNSFNEATMVLVSWIMWYAPVGIMFLVAGKIVEMEDVGLLFARLGKYILCCLLGHAIHGLLVLPLIYFLFTRKNPYRFLWGIVTPLATAFGTSSSSATLPLMMKCVEENNGVAKHISRFILPIGATVNMDGAALFQCVAAVFIAQLSQQSLDFVKIITILVTATASSVGAAGIPAGGVLTLAIILEAVNLPVDHISLILAVDWLVDRSCTVLNVEGDALGAGLLQNYVDRTESRSTEPELIQVKSELPLDPLPVPTEEGNPLLKHYRGPAGDATVASEKESVM | – | binds |
